{"sequences": {"note": "Protein sequences, listed by entry. Tags and fused reporters are not part of them. Lines headed by an entry give the natural chain unless they say otherwise; changes in a name come on top.", "UniProt P01375": "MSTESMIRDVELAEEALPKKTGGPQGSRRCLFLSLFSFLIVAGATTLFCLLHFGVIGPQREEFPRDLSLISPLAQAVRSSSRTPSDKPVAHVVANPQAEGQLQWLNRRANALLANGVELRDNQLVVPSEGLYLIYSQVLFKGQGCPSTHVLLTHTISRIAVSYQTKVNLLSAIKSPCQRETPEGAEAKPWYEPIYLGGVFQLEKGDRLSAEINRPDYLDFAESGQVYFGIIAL", "UniProt Q13137": "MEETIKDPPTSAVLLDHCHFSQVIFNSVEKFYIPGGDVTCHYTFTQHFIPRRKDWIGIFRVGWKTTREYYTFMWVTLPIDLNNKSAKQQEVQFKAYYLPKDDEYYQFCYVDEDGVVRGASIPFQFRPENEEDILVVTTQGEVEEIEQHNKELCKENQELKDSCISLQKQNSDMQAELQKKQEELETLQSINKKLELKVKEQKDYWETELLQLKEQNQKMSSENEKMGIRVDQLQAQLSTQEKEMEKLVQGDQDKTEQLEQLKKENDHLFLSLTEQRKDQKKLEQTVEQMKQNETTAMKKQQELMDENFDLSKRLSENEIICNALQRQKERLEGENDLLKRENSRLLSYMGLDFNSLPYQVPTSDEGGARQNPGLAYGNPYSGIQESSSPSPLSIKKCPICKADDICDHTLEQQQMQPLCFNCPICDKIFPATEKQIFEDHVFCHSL"}, "source": "paper PMC8017197", "target": "FLAG-tagged TNF-α (UniProt P01375)", "assay": "co-IP; TNFR complex I analysis: HeLa cells (parental, NDP52-/-, HOIP-/-; 2×10^7) stimulated with 1 μg/ml FLAG-tagged TNF-α, lysed in 1% Triton X-100 buffer, anti-FLAG M2 magnetic beads overnight at 4°C, immunoblotting; only the target purified", "note": "These are yes or no findings as the source states them, for the method shown. In cells and extracts the contact can be indirect. Binding calls can cover weak binding; strength is not graded here.", "data": [{"substance": "endogenous NDP52 of HeLa cells (from UniProt Q13137 1-446)", "values": [{"measurement": "binding", "result": "binds"}]}]}
